Experimental data reported in patent publication US20260070976A1.
Changes are numbered by the printed parent chain. No constants are given. Whether binding was seen depends on the method and setting. Some entries that bind do so weakly or less than the wild type.

By UniProt entry, the sequences of proteins in these tests, tags left out. Where a name states a change or a piece, a line headed by the entry shows the natural chain unless it says otherwise.
UniProt Q9UKJ1: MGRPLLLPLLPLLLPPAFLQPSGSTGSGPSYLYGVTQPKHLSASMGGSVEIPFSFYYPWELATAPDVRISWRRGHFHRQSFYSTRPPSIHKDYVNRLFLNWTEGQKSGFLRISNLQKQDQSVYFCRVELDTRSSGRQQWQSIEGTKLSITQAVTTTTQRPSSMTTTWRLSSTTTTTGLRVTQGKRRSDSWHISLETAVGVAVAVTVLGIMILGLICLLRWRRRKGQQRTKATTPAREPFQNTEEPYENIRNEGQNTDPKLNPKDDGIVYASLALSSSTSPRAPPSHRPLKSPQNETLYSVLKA

B1: X14 (antibody, human IgG4, V domains shown)
VH: QVQLVQSGAEVKKPGSSVKVSCKASGYNFLHYDVNWVRQAPGQGLEWMGGIIPIFGTANYAQKFQGRVTITADESTSTAYMELSSLRSEDTAVYYCATAVGAGWFDTWGQGTLVTVSS
VL: DIVMTQSPDSLAVSLGERATINCKSSQSVYFSPNNKNYLAWYQQKPGQPPKLLIYWASTRESGVPDRFSGSGSGTDFTLTISSLQAEDVAVYYCQQYFEEPYTFGQGTRLEIK
B2: X7 (antibody, human IgG4, V domains shown)
VH: B1 VH with H31N, A99G, T107P
VL: B1 VL with Y30F, S32D, P33E
B3: X18 (antibody, human IgG4, V domains shown)
VH: B1 VH
VL: B1 VL with Y30W, S32D
B4: X20 (antibody, human IgG4, V domains shown)
VH: B1 VH with T107P
VL: B1 VL with P33E, F98Y
B5: X11 (antibody, human IgG4, V domains shown)
VH: B1 VH with H31N, A99G, T107P
VL: B1 VL with P33E, F98Y

These binders were tested against cell surface PILRA on human monocytes (human) (UniProt Q9UKJ1) (assay: Binding on hu mono (human monocytes), flow cytometry; summary cell).

binding, binds:
B1, B2, B3, B4, B5

These binders were tested against cell surface PILRA on human monocytes (human) (UniProt Q9UKJ1) (assay: flow cytometry, antibody at 1 µg/mL on human monocytes (FIG. 1C)).

binding, binds:
B3, B5

Each binder was assayed against cell surface PILRA on human monocytes (human) (UniProt Q9UKJ1) (assay: flow cytometry, Alexa Fluor 647-conjugated antibody on human monocytes).

binding, binds:
B1, B2, B3, B4, B5

The binders below were run against cell surface PILRA on human monocytes (human) (UniProt Q9UKJ1) (assay: flow cytometry; Alexa Fluor 647-conjugated antibody on human CD14+ monocytes, Fc receptors blocked, 30 min on ice).

binding, binds:
B1, B2, B3, B4, B5

The binders below were run against cell surface PILRA on human monocytes (human) (UniProt Q9UKJ1) (assay: flow cytometry; Alexa Fluor 647-conjugated antibody at 1 ug/mL on human monocytes).

binding, binds:
B3, B5

What follows are binders tested against cell surface PILRA on human monocytes (human) (UniProt Q9UKJ1) (assay: flow cytometry; Alexa Fluor 647-conjugated antibody on human CD14+ monocytes (second donor sample), Fc receptors blocked, 30 min on ice).

binding, binds:
B3, B5
